Primary screen of a compound library

Data taken from ChEMBL document CHEMBL3988442, “University of Dundee, Small-Polar-MMV Screening Library” (2021).

Values are the deposited “Percent Effect”, in %.
The record does not define 0% and 100%; most values in the screen are far below 50% and negative numbers occur (in some assays of this library far below -100).
Compounds were drawn at random from those tested, without regard to their results.

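Assay on Mycobacterium tuberculosis, filed only as a heat shock assay from Cornell; the read-out is not stated. The concentration is filed as 10 mM, unlikely as a test dose, so the dose is not known. The record gives no direction; compounds that gave an IC50 in retests scored well above the rest, so higher reads as stronger inhibition. Size under these conditions: about 69,000 compounds, about 930 of them at 50% or above in at least one test.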

| # | compound | effect |
|---|---|---|
| 1 | `N#Cc1cccc(CN(CCO)Cc2ccsc2)c1` | -12.92% |
| 2 | `CC1(C)OCC2(CO1)CN(S(=O)(=O)c1ccc(Br)s1)C2` | -2.464% |
| 3 | `c1ccc(-c2nc(CNC3CCc4ncnn4C3)cs2)cc1` (stereo not drawn) | 4.897% |
| 4 | `O=S(=O)(Nc1ccc(N2CCOCC2)cn1)c1cccc(F)c1` | 3.337% |
| 5 | `Cc1ccc(C)n1-c1c(C(=O)NCC(C)N(C)C)cnn1C` (stereo not drawn) | 3.633% |
| 6 | `NCC1CCN(c2cnn(CCCn3cccn3)c(=O)c2)CC1` | 17.93% |
| 7 | `CC(C)c1ccc(S(=O)(=O)NC2CCN(CC(F)(F)F)C2)cc1` (stereo not drawn) | -18.16% |
| 8 | `COc1ccc(Oc2cccnc2)cc1CN1CCCC1` | -8.864% |
| 9 | `CN(Cc1ccc(Cl)cc1)C(=O)Nc1cnn(CC(N)=O)c1` | -17.57% |
| 10 | `Cc1nn(C(C)C)c(C)c1NC(=O)c1ccccc1` | -7.424% |
| 11 | `CCCN(C(=O)CCS(=O)(=O)Cc1ccccc1)c1cccc(C)c1` | -29.98% |
| 12 | `CC(C)Nc1nc2c(cc1C(=O)NCC1CC1)CCN(S(C)(=O)=O)CC2.O=C(O)C(F)(F)F` | -8.557% |
| 13 | `COc1ccnc(N2CCCN(C(=O)CCc3cnn(C)c3)CC2)n1` | -23.55% |
| 14 | `O=C(O)C(F)(F)F.[H][C@@]12CCN(c3cccnc3)C[C@]1([H])CN(C(=O)c1ccn(C)n1)C2` | 9.822% |
| 15 | `CCc1cc(O)nc(C2CCCN2C(=O)COC)n1` (stereo not drawn) | -8.629% |
| 16 | `CC1CCN(Cc2cnc(S(=O)(=O)CC3CC3)n2CC2CCCO2)CC1` (stereo not drawn) | -2.824% |
| 17 | `Cc1n[nH]c(C)c1CNC(=O)N(Cc1ccccc1)CC(C)(C)O` | -9.631% |
| 18 | `Fc1ccc(C2(CNC3=NCCCN3)CCC2)cc1.I` | -16.04% |
| 19 | `COCC1CN(C(=O)Nc2cc(Cl)ccc2F)CCO1` (stereo not drawn) | -5.4% |
| 20 | `CC(c1ccon1)N(C)C(=O)C1CCN(CC(N)=O)CC1` (stereo not drawn) | -3.42% |
| 21 | `[H][C@@]12CCC(=O)N(CCc3ccccc3)[C@]1([H])CCN(c1ncccc1F)C2` | -9.67% |
| 22 | `CCCc1nc(C)cc(N2Cc3cnn(CCO)c3C2)n1` | 2.053% |
| 23 | `CN1CCN(c2nc(-c3cnn(C)c3)cs2)CC1` | -2.615% |
| 24 | `Cc1noc(COCC(=O)Nc2ccc(Br)c(C)n2)n1` | 3.251% |
| 25 | `CC(C)c1cc(NC(=O)CN2CCn3c(nnc3C3CC3)C2)on1` | -51.04% |
| 26 | `O=C(CC1CCN(c2cccnn2)CC1)Nc1nncs1` | -0.1104% |
| 27 | `Cc1nc(-c2ccccc2)n(CC(=O)NC(C)(C)C)n1` | -0.432% |
| 28 | `O=c1c(NCCCO)c(N2CCN(c3ccccc3)CC2)c1=O` | 0.3577% |
| 29 | `CCOc1cccc2c1OCC(=O)N(c1ccc3c(c1)OCO3)C2` | -8.154% |
| 30 | `COc1cc2cc(C(=O)NCCC(=O)O)n(C)c2c(OC)c1OC` | -3.879% |
| 31 | `Cc1ccc(C2CN(c3nnc(C(F)F)s3)CCO2)c(C)c1` (stereo not drawn) | 6.32% |
| 32 | `c1cncc(CN2CCC3(CCCN(c4nncs4)C3)C2)c1` (stereo not drawn) | 2.705% |
| 33 | `CS(=O)(=O)Cc1ccc(NC(=O)Cc2cccnc2)cc1F` | -44.97% |
| 34 | `CCN(C(=O)CS(=O)(=O)Cc1cc(Cl)c2c(c1)OCCCO2)C1CC1` | 14.24% |
| 35 | `Cc1ncc(S(C)(=O)=O)c(N2CCCN(Cc3ccccn3)CC2)n1` | -8.727% |
| 36 | `Cc1cc(NC(=O)CCN2CCn3c(nnc3C3CC3)C2)no1` | 14.73% |
| 37 | `O=C(CN1CCN(c2ccnc3c(F)ccc(F)c23)CC1)N1CCCC1` | -40.22% |
| 38 | `Cc1ccc(OCC(O)CNC(=O)C2(c3ccc(F)cc3)CC2)cc1` (stereo not drawn) | 3.65% |
| 39 | `CN(C)Cc1cnc(CC2CCN(CCc3ccccc3)CC2)cn1` | 8.605% |
| 40 | `O=C(c1ccnc(CC2COc3ccccc3C2)c1)N1CCCC1` (stereo not drawn) | -28.06% |
| 41 | `O=C(O)C(F)(F)F.[H][C@@]12CCN(C3CCCCC3)C[C@]1(C(=O)N1CCCO1)CCO2` | 0.7859% |
| 42 | `CN(Cc1nnc(C2CC2)n1C)C1CCN(CCc2cccs2)C1` (stereo not drawn) | -18.62% |
| 43 | `CSC1(CNC(=O)N(C)Cc2ccc(C)s2)CCOCC1` | -3.954% |
| 44 | `CC(C)N(CC(N)=O)Cc1csc(COc2ccc(F)cc2)n1` | 13.03% |
| 45 | `COc1ccc(OC)c(Nc2nc3c(C)nn(C)c3c(=O)n2C)c1` | 11.7% |
| 46 | `CC1CN(C2CCN(Cc3nccn3CC(F)(F)F)CC2)CCO1` (stereo not drawn) | -7.229% |
| 47 | `CN(C)[C@H]1CCCCN(C(=O)CCc2csc(N)n2)C1` | 10.59% |
| 48 | `CCOC(=O)N1CCc2ccccc2C12CCNCC2.Cl` | 29.77% |
| 49 | `Oc1c(F)cc(CNc2cccc(-c3nnc[nH]3)c2)cc1F` | 6.952% |
| 50 | `CCNC(=O)N1CCC(=Cc2ccccc2)CC1` | -36.22% |
| 51 | `CC(C)(C)C(=O)Nc1cnn(-c2ccccc2S(C)(=O)=O)c1` | 18.57% |
| 52 | `[H][C@]12CC[C@]([H])(CN(C(=O)N(C)C)C1)N(C(=O)c1cccc(N(C)C)c1)C2` | -44.86% |
| 53 | `O=C(NCc1ccoc1)c1ccc(C2CCCN2CC2CCOCC2)s1` (stereo not drawn) | -7.48% |
| 54 | `NC(=O)C1CCN(C(=O)CCSCc2ccc(Cl)c(Cl)c2)CC1` | -3.192% |
| 55 | `CN(C)S(=O)(=O)c1ccc(-c2nc(C#N)c(NC3CCCCC3)o2)o1` | 5.856% |
| 56 | `O=C(O)C(F)(F)F.[H][C@@]12CCN(c3cnccn3)C[C@]1([H])CN(C(=O)CCC)C2` | -8.378% |
| 57 | `O=C(O)C(F)(F)F.[H][C@]12CCN(C(=O)Cc3ccc(F)cc3)C[C@@]1([H])OCCN(CCOC)C2` | -19.09% |
| 58 | `COc1ccc(C)c(NC(=O)NCc2cccc(N(C)C)n2)c1` | 29.74% |
| 59 | `Cc1cc(C(F)(F)F)cc(N2C[C@@H](CN(C)CCO)[C@@H](CO)C2)n1` | -9.147% |
| 60 | `Cn1c(Cn2ccnc2)nnc1C1CCCN(Cc2ccncc2)C1` (stereo not drawn) | 10.45% |
| 61 | `Cc1nc(-c2ccc(S(=O)(=O)N3CCOCC3)cc2)co1` | 13.38% |
| 62 | `Cc1noc(C2CCC3(CCN(C(=O)c4ncccn4)CC3)O2)n1` (stereo not drawn) | -26.54% |
| 63 | `Cc1cccnc1CC(C)NC1CCSCC1` (stereo not drawn) | -20.81% |
| 64 | `CCN(Cc1nc2c(cnn2C)c(=O)[nH]1)c1cccc(C)c1C` | -18.19% |
| 65 | `CN(C)CCN1C(=O)CCC12CCN(C(=O)c1cccnc1)CC2.O=C(O)C(F)(F)F.O=C(O)C(F)(F)F` | 1.343% |
| 66 | `Nc1cc(CC2COc3ccccc3C2)ccn1` (stereo not drawn) | -17.43% |
| 67 | `O=C(NCCn1nc2ccccn2c1=O)c1cccc2[nH]ncc12` | -9.419% |
| 68 | `O=C(NCC1Cn2nnc(-c3ccncc3)c2CO1)c1ccsc1.O=C(O)C(F)(F)F` (stereo not drawn) | -15.9% |
| 69 | `COc1ccccc1CN1CC(O)CN(C(=O)OCC(C)C)CC1=O` (stereo not drawn) | 1.526% |
| 70 | `[H][C@@]12CS(=O)(=O)C[C@]1([H])N(C(=O)c1cc(C(C)C)on1)CCN2CC=C(C)C` | 8.318% |
| 71 | `CC(C)[C@@H](C)NC1CCN(c2ccc(-n3ccnc3)cc2)CC1` | 7.72% |
| 72 | `O=C(C1CC1)N1CCC2(COCc3cnc(N4CCOCC4)nc32)C1` (stereo not drawn) | -13.51% |
| 73 | `O=C1N(Cc2cccc(F)c2F)CCCC1(O)CN1CCCOCC1` (stereo not drawn) | 12.44% |
| 74 | `O=C(c1cccnc1N1CCCCC1)N1CCCC(n2ccnc2)C1` (stereo not drawn) | 1.365% |
| 75 | `c1ccc(O[C@H]2COCCN(Cc3cccc4c3OCO4)C2)cc1` | -21.01% |
| 76 | `O=C(O)C(F)(F)F.O=C(O)C(F)(F)F.c1csc(CN2CCC3(CC2)CCN(CC2CCOCC2)C3)n1` | -43.79% |
| 77 | `COc1ccc(CCNC(=O)C(C)Nc2ccc(C)c(C)c2)cc1` (stereo not drawn) | -20.68% |
| 78 | `O=C(O)C(F)(F)F.[H][C@@]12CN(C(=O)CC)CCC[C@]1(C(=O)N(C)C)CN(c1ccccn1)C2` | -23.93% |
| 79 | `CCOCC(=O)N1CCC(Cc2nnc(SC)n2C)CC1` | 9.365% |
| 80 | `Cc1nccc(N2CCCC(C)(c3[nH]ncc3C(N)=O)C2)n1` (stereo not drawn) | 11.09% |
| 81 | `CN(C)c1cc2c(nn1)CCN(C(=O)C1COc3ccccc3C1)C2` (stereo not drawn) | -0.6193% |

Some entries from above, unchanged:

| compound | effect |
|---|---|
| `O=C(O)C(F)(F)F.[H][C@]12CCN(C(=O)Cc3ccc(F)cc3)C[C@@]1([H])OCCN(CCOC)C2` | -19.09% |
| `O=C(O)C(F)(F)F.O=C(O)C(F)(F)F.c1csc(CN2CCC3(CC2)CCN(CC2CCOCC2)C3)n1` | -43.79% |
| `c1ccc(O[C@H]2COCCN(Cc3cccc4c3OCO4)C2)cc1` | -21.01% |
| `O=C(CC1CCN(c2cccnn2)CC1)Nc1nncs1` | -0.1104% |
| `CCOCC(=O)N1CCC(Cc2nnc(SC)n2C)CC1` | 9.365% |
| `COc1ccnc(N2CCCN(C(=O)CCc3cnn(C)c3)CC2)n1` | -23.55% |
| `CC(C)Nc1nc2c(cc1C(=O)NCC1CC1)CCN(S(C)(=O)=O)CC2.O=C(O)C(F)(F)F` | -8.557% |
| `O=S(=O)(Nc1ccc(N2CCOCC2)cn1)c1cccc(F)c1` | 3.337% |
| `CC(C)N(CC(N)=O)Cc1csc(COc2ccc(F)cc2)n1` | 13.03% |
| `Cc1nn(C(C)C)c(C)c1NC(=O)c1ccccc1` | -7.424% |